From PMC7819943, “Rice protein-binding microarrays: a tool to detect cis-acting elements near promoter regions in rice”
Some of the results follow.

By UniProt entry, the sequences of proteins in these tests, tags left out.
UniProt Q0JBA9, entry or part of it: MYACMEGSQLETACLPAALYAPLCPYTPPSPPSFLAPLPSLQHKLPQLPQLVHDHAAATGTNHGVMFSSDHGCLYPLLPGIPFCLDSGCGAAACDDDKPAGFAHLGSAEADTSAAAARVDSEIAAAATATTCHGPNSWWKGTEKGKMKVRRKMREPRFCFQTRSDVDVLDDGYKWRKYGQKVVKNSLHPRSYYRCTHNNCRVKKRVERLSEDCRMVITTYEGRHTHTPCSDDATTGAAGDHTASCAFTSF

The sequences below were run against OsWRKY34 (Oryza sativa, UniProt Q0JBA9 1-250) (assay: protein-binding microarray (RPBM); PBS, 2% BSA, 51.3 ng/ul salmon testes DNA, 50 uM zinc acetate, 200 nM TF, 25 C, 1 h; high values mean tight binding). Settings: protein: recombinant; tags: N-terminal polyhistidine and DsRed monomer fusion (pET32a); label: CyDye5-dUTP incorporated in the synthesized complementary strand; 3' TTTTT single-stranded linker to array surface; dsDNA, one strand shown.
Procedure, shortened: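 Transcription factors were each fused at the N-terminus to a polyhistidine tag plus DsRed and expressed in E. coli BL21-CodonPlus before Ni–NTA purification. Binding to a double-stranded custom Agilent array was carried out with 200 nM protein at 25 °C for 1 h in PBS, 2% BSA, salmon testes DNA and 50 µM zinc acetate. The binding signal is per-feature fluorescence intensity, in arbitrary units, on an Axon 4000B scanner.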

Point of comparison: “TTAAGTTCTTTTCATCGACTCATTTCGTGCTTTTGTATTTCGGAGTCACCTAGTGCAG”, binding signal 9320 fluorescence intensity (a.u.). Against it:
- TGTAAGTCATTCTAGCACTTTTCACATTCATATTGATCTACGGAGTCACCTAGTGCAG — lower, 8820 fluorescence intensity (a.u.)
- GAGAGATTCGATCCTTTTGTTTGCTTTGTTGTTGCCGTCGCGGAGTCACCTAGTGCAG — lower, 8090 fluorescence intensity (a.u.)
- ATTTATATGGGTAATGGGTGGGTAATGGGTAATGTGTATTCGGAGTCACCTAGTGCAG — higher, 16300 fluorescence intensity (a.u.)
- GCCCCACTCCCAACCCATCTCCACCGTCCGTCTCCATCCGCGGAGTCACCTAGTGCAG — higher, 10000 fluorescence intensity (a.u.)
- TTGATGCTTAATCTGGTGTTTGTTATGTTCATTTTTTCATCGGAGTCACCTAGTGCAG — higher, 12200 fluorescence intensity (a.u.)
- TCTCACGCGCCTTTCTTTCTGTTCATTTCCTTGGGGTTTACGGAGTCACCTAGTGCAG — higher, 14300 fluorescence intensity (a.u.)
- GGGTGTGTCATCTAGATCCCTAAACTCTCAAAATGATTTACGGAGTCACCTAGTGCAG — lower, 9020 fluorescence intensity (a.u.)
- TGTGTCACATCCAGTATTGGTTTTTTTATGGGAAGGAGGGCGGAGTCACCTAGTGCAG — lower, 8300 fluorescence intensity (a.u.)
- TCGCATCCTCTCCTGTATATATTATCTCCCACTCCTCTCTCGGAGTCACCTAGTGCAG — higher, 9510 fluorescence intensity (a.u.)
- GGGAGGTCCTCGATCGATCGATCATCAGGTGGCAGCTGCACGGAGTCACCTAGTGCAG — lower, 8210 fluorescence intensity (a.u.)
- GCGTGCGAAACTGGCCCATTATTTCTTTGGATCAATATACCGGAGTCACCTAGTGCAG — lower, 8230 fluorescence intensity (a.u.)
- CTCCATCCACGGCGAGCACTCATCCAAACCGTCCATCCACCGGAGTCACCTAGTGCAG — lower, 8110 fluorescence intensity (a.u.)
- GGGCTGCCAATTTGCCAAATCATATTCTCACGCCCTACCTCGGAGTCACCTAGTGCAG — lower, 8300 fluorescence intensity (a.u.)
- GTTTGTCCATGGCGCCACCACCACCGCCACCACCGCTGCACGGAGTCACCTAGTGCAG — higher, 9900 fluorescence intensity (a.u.)
- CTCTCTCTCTCTCTCTCTCTCTCCTCCGCTTCTTCCTACACGGAGTCACCTAGTGCAG — higher, 15700 fluorescence intensity (a.u.)
- ACGCCGTCCTCTATGCCGAAATCTTACCGTCACCACTGCCCGGAGTCACCTAGTGCAG — lower, 8330 fluorescence intensity (a.u.)
- ATCTTTTCCGCTGTTGCTGCTCCTCCTTTCTCGCTCTCGCCGGAGTCACCTAGTGCAG — higher, 9750 fluorescence intensity (a.u.)
- ACGTCATCCCTTATTACATCTTCCCGCGTTTAATTAGTACCGGAGTCACCTAGTGCAG — higher, 11300 fluorescence intensity (a.u.)
- ATTAGCATTCCGCCATGTTATCATTCCCTTGTGTTTTTCCCGGAGTCACCTAGTGCAG — higher, 9360 fluorescence intensity (a.u.)
- TGATGACGGTTTTACTGGCGCGACCGACCGGACCGGACCCCGGAGTCACCTAGTGCAG — lower, 8440 fluorescence intensity (a.u.)
- GTTTGTTTTTATTCTTCTTTCCCCATTTTTTCTCTTGATCCGGAGTCACCTAGTGCAG — higher, 12600 fluorescence intensity (a.u.)
- AAATGCCATCGCCGTCACTTTCACTCTGTTAGACACCGTTCGGAGTCACCTAGTGCAG — lower, 8390 fluorescence intensity (a.u.)
